Values from PubChem BioAssay AID686938 (Drosophila RNAi Screening Center, 2013)

- Test: 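Knock-downs reducing store-operated calcium influx in Drosophila cells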 (primary screen)
- System: Drosophila S2R+ cells
- Knock-down reagent: long dsRNA against Drosophila genes, about 0.25 µg dsRNA per well, roughly 10,000 cells
- Timing: 5 days of knock-down before the calcium assay
- Challenge: thapsigargin (SERCA pump blocker) to empty calcium stores; entry signal taken 4 min after adding it
- Measurement: 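Duplicate raw fluo-4 intensities per well from a plate reader, at rest and four minutes after thapsigargin emptied calcium stores; entry-to-rest ratio filled for only some wells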
- Scale: calcium entry signal: higher = stronger calcium signal after store depletion; resting calcium signal: higher = higher resting calcium signal
- Units: calcium entry signal in fluorescence units; resting calcium signal in fluorescence units
- Active means: 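Called when the plate z-score of the entry-to-rest ratio, mean of duplicates, falls below −3; wells with low overall dye signal (Fmax z below −2) or more than five off-targets excluded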
- Meaning of the calls: active = strongly reduced calcium entry; inactive = no strong reduction
The deposit covers about 23,000 reagents; below is an unselected part of those with a known target gene and a result. Of all reagents, 75 (0.33%) were called active. 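Raw plate signals without normalisation; calls rest on plate z-scores that were not deposited; ratio present for only 364 wells.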 The numbers tell different reagents against one gene apart. Names joined by + are all predicted targets of the reagent. Not given: the dose of the treatment.

CDK2AP1 (CDK2-associated protein 1) — calcium entry signal, replicate 1: 2.98e7; calcium entry signal, replicate 2: 3.66e7; resting calcium signal, replicate 1: 1.46e7; resting calcium signal, replicate 2: 1.71e7; call: inactive
CG11882 — calcium entry signal, replicate 1: 2.98e7; calcium entry signal, replicate 2: 3.11e7; resting calcium signal, replicate 1: 1.56e7; resting calcium signal, replicate 2: 1.48e7; call: inactive
CG43386 — calcium entry signal, replicate 1: 3.68e7; calcium entry signal, replicate 2: 5.06e7; resting calcium signal, replicate 1: 1.98e7; resting calcium signal, replicate 2: 2.18e7; call: inactive
Rme-8 (Receptor mediated endocytosis 8) — calcium entry signal, replicate 1: 2.69e7; calcium entry signal, replicate 2: 2.16e7; resting calcium signal, replicate 1: 1.12e7; resting calcium signal, replicate 2: 1.11e7; call: inactive
CG11529 — calcium entry signal, replicate 1: 2.73e7; calcium entry signal, replicate 2: 3.72e7; resting calcium signal, replicate 1: 1.54e7; resting calcium signal, replicate 2: 1.74e7; call: inactive
Mvl (Malvolio) — calcium entry signal, replicate 1: 5.03e7; calcium entry signal, replicate 2: 4.09e7; resting calcium signal, replicate 1: 2.32e7; resting calcium signal, replicate 2: 1.81e7; call: inactive
Cht5 (Chitinase 5) — calcium entry signal, replicate 1: 1.98e7; calcium entry signal, replicate 2: 4.25e7; resting calcium signal, replicate 1: 9.47e6; resting calcium signal, replicate 2: 2.16e7; call: inactive
VhaM9.7-c (Vacuolar H[+] ATPase M9.7 subunit c) — calcium entry signal, replicate 1: 4.46e7; calcium entry signal, replicate 2: 4.17e7; resting calcium signal, replicate 1: 3.06e7; resting calcium signal, replicate 2: 1.77e7; call: inactive
CG3792 — calcium entry signal, replicate 1: 3.67e7; calcium entry signal, replicate 2: 3.61e7; resting calcium signal, replicate 1: 1.71e7; resting calcium signal, replicate 2: 1.59e7; call: inactive
mrn (marionette) — calcium entry signal, replicate 1: 3.23e7; calcium entry signal, replicate 2: 3.81e7; resting calcium signal, replicate 1: 1.55e7; resting calcium signal, replicate 2: 3.01e7; call: inactive
thw (thawb) — calcium entry signal, replicate 1: 4.72e7; calcium entry signal, replicate 2: 3.51e7; resting calcium signal, replicate 1: 2.22e7; resting calcium signal, replicate 2: 1.75e7; call: inactive
Spn28Da (Serpin 28Da) — calcium entry signal, replicate 1: 3.47e7; calcium entry signal, replicate 2: 5.17e7; resting calcium signal, replicate 1: 1.60e7; resting calcium signal, replicate 2: 2.16e7; call: inactive
CG5445 #1 — calcium entry signal, replicate 1: 4.49e7; calcium entry signal, replicate 2: 4.04e7; resting calcium signal, replicate 1: 2.55e7; resting calcium signal, replicate 2: 1.74e7; call: inactive
CG5445 #2 — calcium entry signal, replicate 1: 4.39e7; calcium entry signal, replicate 2: 4.27e7; resting calcium signal, replicate 1: 2.01e7; resting calcium signal, replicate 2: 1.86e7; call: inactive
Cftr (CF transmembrane conductance regulator) — calcium entry signal, replicate 1: 5.39e7; calcium entry signal, replicate 2: 4.71e7; resting calcium signal, replicate 1: 2.49e7; resting calcium signal, replicate 2: 2.04e7; call: inactive
JYalpha (retired record) + JYalpha — calcium entry signal, replicate 1: 3.97e7; calcium entry signal, replicate 2: 3.32e7; resting calcium signal, replicate 1: 2.19e7; resting calcium signal, replicate 2: 1.51e7; call: inactive
CG15461 — calcium entry signal, replicate 1: 4.78e7; calcium entry signal, replicate 2: 4.70e7; resting calcium signal, replicate 1: 2.15e7; resting calcium signal, replicate 2: 1.87e7; call: inactive
CG15040 #1 — calcium entry signal, replicate 1: 4.40e7; calcium entry signal, replicate 2: 2.47e7; resting calcium signal, replicate 1: 2.16e7; resting calcium signal, replicate 2: 1.29e7; call: inactive
CG15040 #2 — calcium entry signal, replicate 1: 2.59e7; calcium entry signal, replicate 2: 2.71e7; resting calcium signal, replicate 1: 1.26e7; resting calcium signal, replicate 2: 1.33e7; call: inactive
RanBP3 (Ran binding protein 3) #1 — calcium entry signal, replicate 1: 3.66e7; calcium entry signal, replicate 2: 3.97e7; resting calcium signal, replicate 1: 1.86e7; resting calcium signal, replicate 2: 1.82e7; call: inactive
RanBP3 (Ran binding protein 3) #2 — calcium entry signal, replicate 1: 2.82e7; calcium entry signal, replicate 2: 3.23e7; resting calcium signal, replicate 1: 1.61e7; resting calcium signal, replicate 2: 1.48e7; call: inactive
CG5478 — calcium entry signal, replicate 1: 3.94e7; calcium entry signal, replicate 2: 3.26e7; resting calcium signal, replicate 1: 1.92e7; resting calcium signal, replicate 2: 6.15e7; call: inactive
ash2 (absent, small, or homeotic discs 2) — calcium entry signal, replicate 1: 3.70e7; calcium entry signal, replicate 2: 3.21e7; resting calcium signal, replicate 1: 1.86e7; resting calcium signal, replicate 2: 1.47e7; call: inactive
PTPMT1 (Protein tyrosine phosphatase, mitochondrial 1) — calcium entry signal, replicate 1: 4.18e7; calcium entry signal, replicate 2: 3.12e7; resting calcium signal, replicate 1: 2.06e7; resting calcium signal, replicate 2: 1.49e7; call: inactive
l(2)gd1 (lethal (2) giant discs 1) — calcium entry signal, replicate 1: 4.68e7; resting calcium signal, replicate 1: 2.12e7; call: inactive
CG18473 — calcium entry signal, replicate 1: 2.19e7; calcium entry signal, replicate 2: 1.55e7; resting calcium signal, replicate 1: 1.12e7; resting calcium signal, replicate 2: 8.43e6; call: inactive
CG9173 — calcium entry signal, replicate 1: 3.30e7; calcium entry signal, replicate 2: 4.24e7; resting calcium signal, replicate 1: 1.65e7; resting calcium signal, replicate 2: 1.84e7; call: inactive

Part of the list above, reduced to “resting calcium signal, replicate 2”:
CG5445 #2: 1.86e7
Cftr (CF transmembrane conductance regulator): 2.04e7
JYalpha (retired record) + JYalpha: 1.51e7
